For at least one entry, the source does not settle the construct or the ends of the probe. For some assays here: Protein sequences can lack the tags named with them.
Columns and labels:
[1] = molecular target: T1, Sprm-1 (Rattus norvegicus) (UniProt P56225); assay: SELEX; conditions: SAAB, four rounds; preferred site, higher affinity than H-O+; purified recombinant protein; protein details: GST fusion, glutathione affinity purified
T1 sequence (limits assumed): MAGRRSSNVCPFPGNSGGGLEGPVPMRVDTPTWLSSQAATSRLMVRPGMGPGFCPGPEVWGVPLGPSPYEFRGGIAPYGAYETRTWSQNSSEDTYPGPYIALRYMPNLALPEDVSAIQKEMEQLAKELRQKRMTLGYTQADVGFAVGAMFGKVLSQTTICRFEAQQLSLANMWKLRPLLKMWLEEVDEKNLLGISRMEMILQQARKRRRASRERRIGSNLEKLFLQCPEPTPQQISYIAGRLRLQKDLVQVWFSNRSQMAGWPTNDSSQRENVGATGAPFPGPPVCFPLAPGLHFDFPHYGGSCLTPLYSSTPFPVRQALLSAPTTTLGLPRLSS

Oct-2 = assay: EMSA; conditions: protein translated in vitro; label: 32P

“GCATATGTTAAT (double strand) [SAAB-selected Sprm-1 preferred site]” was tested, and the selection result [1] was “selected”.

“TTTGAAAATATGTGTAATATGTAAAACATTTTG (double strand) [I12 Oct site]”: binds (Oct-2).

Reference: patent US5612220
